No constants are given. Whether binding was seen depends on the method and setting. In cells and extracts the contact can be indirect. Some results given as binding are weak or reduced against the parent protein; the word gives no strength. Sequences can lack the tags named with a protein.

By UniProt entry, the sequences of proteins in these tests, tags left out.
UniProt P08670: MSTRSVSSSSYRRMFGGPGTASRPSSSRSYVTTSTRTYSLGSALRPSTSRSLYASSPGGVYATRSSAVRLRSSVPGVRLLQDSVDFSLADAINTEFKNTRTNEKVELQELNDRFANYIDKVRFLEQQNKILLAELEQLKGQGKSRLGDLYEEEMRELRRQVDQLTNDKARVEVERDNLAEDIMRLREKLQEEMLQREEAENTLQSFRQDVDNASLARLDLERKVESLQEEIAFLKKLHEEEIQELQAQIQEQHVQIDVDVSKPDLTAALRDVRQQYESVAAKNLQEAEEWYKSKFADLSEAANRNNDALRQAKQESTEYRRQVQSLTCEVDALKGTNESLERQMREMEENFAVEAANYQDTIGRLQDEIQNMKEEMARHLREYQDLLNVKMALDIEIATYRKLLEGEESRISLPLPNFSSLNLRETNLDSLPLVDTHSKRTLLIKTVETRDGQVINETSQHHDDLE

Assay [1] addresses T1, HA-NEURL3 (neuralized E3 ubiquitin protein ligase 3, HA-tagged) (UniProt Q96EH8).
T1 sequence: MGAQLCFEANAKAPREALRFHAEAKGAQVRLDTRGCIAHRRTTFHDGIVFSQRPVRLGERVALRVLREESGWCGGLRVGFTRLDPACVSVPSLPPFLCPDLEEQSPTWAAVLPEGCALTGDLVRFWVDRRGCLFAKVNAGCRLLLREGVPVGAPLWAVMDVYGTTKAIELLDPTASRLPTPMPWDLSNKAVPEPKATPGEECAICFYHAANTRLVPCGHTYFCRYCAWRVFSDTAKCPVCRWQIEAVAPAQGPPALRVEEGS
Nature of the assay: co-IP; HONE1 and SUNE1 cells transfected with HA-NEURL3; IP with anti-HA or anti-Vimentin antibody, Protein A/G magnetic beads, western blot.

The target of assay [2] is endogenous Vimentin (human (endogenous in HONE1 and SUNE1)) (UniProt P08670). The description is as above.
The target in assay [3] is Flag-tagged Vimentin (FL) (UniProt P08670). Description: co-IP; 293T cells co-transfected with Flag-tagged Vimentin (FL or deletion mutants) and Myc-NEURL3; western blot.

In the case of “endogenous Vimentin (from UniProt P08670 1-466)”, the binding entry in assay [1] was “binds”.

B1: HA-NEURL3 (neuralized E3 ubiquitin protein ligase 3, HA-tagged) (enzyme, UniProt Q96EH8 1-262)
chain: MGAQLCFEANAKAPREALRFHAEAKGAQVRLDTRGCIAHRRTTFHDGIVFSQRPVRLGERVALRVLREESGWCGGLRVGFTRLDPACVSVPSLPPFLCPDLEEQSPTWAAVLPEGCALTGDLVRFWVDRRGCLFAKVNAGCRLLLREGVPVGAPLWAVMDVYGTTKAIELLDPTASRLPTPMPWDLSNKAVPEPKATPGEECAICFYHAANTRLVPCGHTYFCRYCAWRVFSDTAKCPVCRWQIEAVAPAQGPPALRVEEGS
For the molecule B1, in assay [2], the binding result is on record as “binds”.

B2: Myc-NEURL3 (enzyme, UniProt Q96EH8 1-262)
chain: MGAQLCFEANAKAPREALRFHAEAKGAQVRLDTRGCIAHRRTTFHDGIVFSQRPVRLGERVALRVLREESGWCGGLRVGFTRLDPACVSVPSLPPFLCPDLEEQSPTWAAVLPEGCALTGDLVRFWVDRRGCLFAKVNAGCRLLLREGVPVGAPLWAVMDVYGTTKAIELLDPTASRLPTPMPWDLSNKAVPEPKATPGEECAICFYHAANTRLVPCGHTYFCRYCAWRVFSDTAKCPVCRWQIEAVAPAQGPPALRVEEGS
As for B2, the binding entry in assay [3] was “binds”.

(Values after PMC10775674.)
